In paper PMC9657779, “Regulatory Role of Sphingosine-1-Phosphate and C16:0 Ceramide, in Immunogenic Cell Death of Colon Cancer Cells Induced by Bak/Bax-Activation” (Cancers, 2022):
Results are given in words; binding and its absence hold for the method and conditions named. Some binding calls cover weakened binding; strength is not graded here.

Experiments:
[1] = target: calreticulin (human (endogenous in DLD-1)) (UniProt P27797); assay: non-reducing SDS-PAGE and Western blot; DLD-1 cells treated with ABT/AZD with or without PF-543 and the Casp8 inhibitor z-IETD-fmk; dimeric and monomeric forms of CRT on a Western blot
[2] = target: calreticulin (human (endogenous in DLD-1)) (UniProt P27797); assay: condition: only with the Casp8 inhibitor z-IETD-fmk; non-reducing SDS-PAGE and Western blot; DLD-1 cells treated with ABT/AZD with or without PF-543 and the Casp8 inhibitor z-IETD-fmk; dimeric and monomeric forms of CRT on a Western blot
[3] = target: calreticulin (human (endogenous in DLD-1)) (UniProt P27797); assay: condition: only in DLD-1 cells over-expressing GFP-SphK1; non-reducing SDS-PAGE and Western blot; DLD-1 cells over-expressing GFP-SphK1, treated with ABT/AZD (0.25/0.125 µM) and PF-543 (100 nM) in 5% dlFBS for 24 h; dimerization of CRT detected by Western blot

B1: calreticulin (natural protein, human (endogenous in DLD-1), UniProt P27797 18-417, looked up)
chain: EPAVYFKEQFLDGDGWTSRWIESKHKSDFGKFVLSSGKFYGDEEKDKGLQTSQDARFYALSASFEPFSNKGQTLVVQFTVKHEQNIDCGGGYVKLFPNSLDQTDMHGDSEYNIMFGPDICGPGTKKVHVIFNYKGKNVLINKDIRCKDDEFTHLYTLIVRPDNTYEVKIDNSQVESGSLEDDWDFLPPKKIKDPDASKPEDWDERAKIDDPTDSKPEDWDKPEHIPDPDAKKPEDWDEEMDGEWEPPVIQNPEYKGEWKPRQIDNPDYKGTWIHPEIDNPEYSPDPSIYAYDNFGVLGLDLWQVKSGTIFDNFLITNDEAYAEEFGNETWGVTKAAEKQMKDKQDEEQRLKEEEEDKKRKEEEEAEDKEDDEDKDEDEEDEEDKEEDEEEDVPGQAKDEL
notes: calreticulin (CRT), the normally ER resident chaperone, endogenous in human colorectal DLD-1 cells; Seen as a disulfide-linked dimer on Western blots run under non-reducing conditions; also called CRT; ectoCRT; source: endogenous, DLD-1 whole cell lysate (RIPA)
- binding [1]: binds
- binding [2]: no binding
- binding [3]: no binding
